Article PMC3251603
These are yes or no findings as the source states them, for the method shown. Binding seen in cells or lysates may run through a third protein. Some entries that bind do so weakly or less than the wild type.

Amino acid sequences for entries named in this document (tags omitted). A change or cut given only in a name is not applied to a line headed by its entry. Chains listed by the source or under a name are the forms on record and can include a tag or linker. Residues count along the entry.
human IgG Fc-tagged human GPR56^N (hGPR56^N-hFc), wild type (Q9Y653, residues 27-382): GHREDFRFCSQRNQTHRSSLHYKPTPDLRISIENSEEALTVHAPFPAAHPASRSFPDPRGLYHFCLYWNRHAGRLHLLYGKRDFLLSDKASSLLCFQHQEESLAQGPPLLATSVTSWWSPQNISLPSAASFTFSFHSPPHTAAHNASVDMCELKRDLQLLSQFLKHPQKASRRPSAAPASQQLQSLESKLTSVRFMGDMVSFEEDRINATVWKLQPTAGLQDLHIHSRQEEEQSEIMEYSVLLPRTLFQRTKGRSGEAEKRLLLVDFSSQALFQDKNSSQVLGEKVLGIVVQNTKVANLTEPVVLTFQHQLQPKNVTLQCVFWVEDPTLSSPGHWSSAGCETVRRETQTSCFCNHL
human GPR56^N-hFc Y88C (Q9Y653, form named): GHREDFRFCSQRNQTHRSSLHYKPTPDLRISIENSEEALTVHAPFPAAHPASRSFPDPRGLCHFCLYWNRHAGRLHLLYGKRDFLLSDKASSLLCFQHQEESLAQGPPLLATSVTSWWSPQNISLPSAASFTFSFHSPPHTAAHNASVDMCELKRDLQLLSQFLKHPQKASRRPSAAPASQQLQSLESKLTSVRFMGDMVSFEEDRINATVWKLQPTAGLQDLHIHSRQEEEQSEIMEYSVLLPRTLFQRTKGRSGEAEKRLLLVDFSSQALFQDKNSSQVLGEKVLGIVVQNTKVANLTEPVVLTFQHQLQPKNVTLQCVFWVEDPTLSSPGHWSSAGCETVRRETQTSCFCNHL
human GPR56^N-hFc C91S (Q9Y653, form named): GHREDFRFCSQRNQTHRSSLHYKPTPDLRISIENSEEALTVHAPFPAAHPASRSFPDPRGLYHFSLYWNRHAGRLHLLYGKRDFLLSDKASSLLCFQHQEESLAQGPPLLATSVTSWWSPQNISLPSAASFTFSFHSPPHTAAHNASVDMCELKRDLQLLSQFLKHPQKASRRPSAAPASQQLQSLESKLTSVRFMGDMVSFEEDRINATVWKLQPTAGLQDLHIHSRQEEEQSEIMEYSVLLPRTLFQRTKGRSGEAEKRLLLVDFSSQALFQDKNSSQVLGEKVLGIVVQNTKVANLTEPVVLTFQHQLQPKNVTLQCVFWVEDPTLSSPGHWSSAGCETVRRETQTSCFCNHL
human GPR56^N-hFc R38Q (Q9Y653, form named): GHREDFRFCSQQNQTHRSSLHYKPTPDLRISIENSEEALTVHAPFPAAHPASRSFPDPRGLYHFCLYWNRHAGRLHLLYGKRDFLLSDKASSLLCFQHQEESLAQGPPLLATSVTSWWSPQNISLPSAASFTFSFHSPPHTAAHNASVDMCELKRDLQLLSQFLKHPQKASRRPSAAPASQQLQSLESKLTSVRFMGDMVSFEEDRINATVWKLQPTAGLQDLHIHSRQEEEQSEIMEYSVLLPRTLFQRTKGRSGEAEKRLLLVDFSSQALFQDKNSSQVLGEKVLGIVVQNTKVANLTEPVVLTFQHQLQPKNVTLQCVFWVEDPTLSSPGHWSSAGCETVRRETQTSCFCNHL
UniProt P02461, residues 154-1221: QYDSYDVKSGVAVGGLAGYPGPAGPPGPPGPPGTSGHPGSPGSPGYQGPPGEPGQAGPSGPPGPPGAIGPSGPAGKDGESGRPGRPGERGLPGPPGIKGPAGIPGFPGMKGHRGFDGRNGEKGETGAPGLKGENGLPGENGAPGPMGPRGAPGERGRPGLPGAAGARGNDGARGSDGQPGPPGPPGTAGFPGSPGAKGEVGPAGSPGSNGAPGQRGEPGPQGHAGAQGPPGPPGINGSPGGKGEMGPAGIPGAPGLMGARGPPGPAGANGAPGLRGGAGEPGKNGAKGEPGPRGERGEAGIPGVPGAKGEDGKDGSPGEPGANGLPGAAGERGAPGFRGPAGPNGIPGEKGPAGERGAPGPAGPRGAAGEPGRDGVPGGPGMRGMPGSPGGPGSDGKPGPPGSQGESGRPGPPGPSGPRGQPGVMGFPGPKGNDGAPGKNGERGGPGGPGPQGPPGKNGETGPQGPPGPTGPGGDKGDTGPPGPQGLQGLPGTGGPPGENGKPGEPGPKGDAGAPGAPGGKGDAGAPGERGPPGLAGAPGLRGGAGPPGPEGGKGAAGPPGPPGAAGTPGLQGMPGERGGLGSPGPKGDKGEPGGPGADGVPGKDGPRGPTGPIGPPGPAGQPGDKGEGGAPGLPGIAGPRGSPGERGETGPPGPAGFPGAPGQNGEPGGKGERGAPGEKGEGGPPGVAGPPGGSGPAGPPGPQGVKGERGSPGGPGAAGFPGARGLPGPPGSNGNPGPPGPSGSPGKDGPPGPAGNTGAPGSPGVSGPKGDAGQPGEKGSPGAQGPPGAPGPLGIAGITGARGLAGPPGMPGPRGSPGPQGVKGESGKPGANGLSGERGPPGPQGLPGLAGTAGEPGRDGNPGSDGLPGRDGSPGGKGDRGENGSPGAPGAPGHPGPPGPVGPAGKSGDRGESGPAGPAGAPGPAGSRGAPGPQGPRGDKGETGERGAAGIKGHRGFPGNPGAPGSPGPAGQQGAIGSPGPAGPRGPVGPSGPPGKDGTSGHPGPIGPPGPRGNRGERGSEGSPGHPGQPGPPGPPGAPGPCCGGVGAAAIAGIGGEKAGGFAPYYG

Tests used:
Experiment in all cases: co-IP; human GPR56^N-hFc proteins (concentrated conditioned media) with purified human collagen III (Abcam); Protein-G beads; blot with anti-collagen III, anti-hFc as loading control; only the binder purified
[1] = target: human GPR56^N-hFc Y88C (human) (UniProt Q9Y653)
[2] = target: human GPR56^N-hFc C91S (human) (UniProt Q9Y653)
[3] = target: human IgG Fc-tagged human GPR56^N (hGPR56^N-hFc), wild type (human) (UniProt Q9Y653)
[4] = target: human GPR56^N-hFc R38Q (human) (UniProt Q9Y653)

For “purified human collagen III (Abcam) (from UniProt P02461 154-1221) (ligand)”, the binding [1] was “no binding”, the binding [2] was “no binding” and the binding [3] was “binds”. The binding [4] was “no binding”.
